Laboratory results published in PMC4492089, “FOXM1 binds directly to non-consensus sequences in the human genome”.
Residue numbers refer to the chain shown, from its start. Results are given in words; binding and its absence hold for the method and conditions named. In cells and extracts the contact can be indirect. Some results given as binding are weak or reduced against the parent protein; the word gives no strength. Sequences can lack the tags named with a protein.

By UniProt entry, the sequences of proteins in these tests, tags left out.
UniProt P10244: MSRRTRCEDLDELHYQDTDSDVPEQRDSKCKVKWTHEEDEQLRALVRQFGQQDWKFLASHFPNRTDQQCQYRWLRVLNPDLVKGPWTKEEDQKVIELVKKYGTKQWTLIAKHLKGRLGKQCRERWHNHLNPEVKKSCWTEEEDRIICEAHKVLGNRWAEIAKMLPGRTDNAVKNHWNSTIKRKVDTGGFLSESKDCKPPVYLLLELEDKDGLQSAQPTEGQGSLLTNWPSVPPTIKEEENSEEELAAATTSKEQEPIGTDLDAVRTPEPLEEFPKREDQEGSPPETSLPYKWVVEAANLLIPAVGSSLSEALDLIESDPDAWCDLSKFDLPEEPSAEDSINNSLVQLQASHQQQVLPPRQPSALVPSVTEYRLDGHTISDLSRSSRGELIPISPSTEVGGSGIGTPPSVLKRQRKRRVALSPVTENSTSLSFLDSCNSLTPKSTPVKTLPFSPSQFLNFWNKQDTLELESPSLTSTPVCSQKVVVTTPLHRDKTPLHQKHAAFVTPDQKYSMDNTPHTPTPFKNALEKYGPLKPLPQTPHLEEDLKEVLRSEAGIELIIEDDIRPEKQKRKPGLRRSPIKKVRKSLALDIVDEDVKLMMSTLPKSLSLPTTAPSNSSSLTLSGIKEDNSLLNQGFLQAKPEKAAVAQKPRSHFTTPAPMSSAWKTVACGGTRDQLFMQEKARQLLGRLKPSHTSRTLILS
UniProt Q5TKA1: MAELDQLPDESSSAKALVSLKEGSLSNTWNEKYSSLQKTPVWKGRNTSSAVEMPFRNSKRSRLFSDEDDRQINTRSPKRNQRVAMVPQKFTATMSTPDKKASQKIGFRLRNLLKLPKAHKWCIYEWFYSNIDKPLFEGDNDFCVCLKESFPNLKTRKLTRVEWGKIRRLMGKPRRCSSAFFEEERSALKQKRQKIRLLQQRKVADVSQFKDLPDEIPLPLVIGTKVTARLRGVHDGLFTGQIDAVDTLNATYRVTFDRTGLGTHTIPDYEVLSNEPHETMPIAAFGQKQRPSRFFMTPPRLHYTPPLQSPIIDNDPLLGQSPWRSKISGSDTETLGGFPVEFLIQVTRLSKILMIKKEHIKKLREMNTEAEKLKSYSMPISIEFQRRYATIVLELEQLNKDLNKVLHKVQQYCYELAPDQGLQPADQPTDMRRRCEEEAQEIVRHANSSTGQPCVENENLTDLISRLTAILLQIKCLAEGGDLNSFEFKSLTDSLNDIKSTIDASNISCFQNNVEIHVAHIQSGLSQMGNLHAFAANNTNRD
UniProt Q00403: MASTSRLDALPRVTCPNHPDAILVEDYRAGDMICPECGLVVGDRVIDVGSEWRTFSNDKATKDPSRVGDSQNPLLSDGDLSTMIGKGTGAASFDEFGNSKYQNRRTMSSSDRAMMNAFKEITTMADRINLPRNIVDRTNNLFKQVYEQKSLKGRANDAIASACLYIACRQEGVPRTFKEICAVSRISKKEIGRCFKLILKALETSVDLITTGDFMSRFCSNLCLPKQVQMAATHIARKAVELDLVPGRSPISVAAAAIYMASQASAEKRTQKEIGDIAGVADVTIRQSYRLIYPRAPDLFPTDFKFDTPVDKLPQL

Tests used:
Test in all cases: co-IP; nuclear extracts of HEK293 cells expressing WT, H287A or R286A GFP-FOXM1 or GFP only (Active Motif nuclear co-IP kit, enzymatic shearing, low IP buffer); pull-down with a GFP antibody by the legend, with FOXM1 antibody sc-502 by the methods; protein A magnetic beads; western blots for B-Myb, LIN9 and TF2B
GFP-FOXM1B H287A (human) = biological target: T1, GFP-FOXM1B H287A (human) (UniProt Q08050)
T1 sequence: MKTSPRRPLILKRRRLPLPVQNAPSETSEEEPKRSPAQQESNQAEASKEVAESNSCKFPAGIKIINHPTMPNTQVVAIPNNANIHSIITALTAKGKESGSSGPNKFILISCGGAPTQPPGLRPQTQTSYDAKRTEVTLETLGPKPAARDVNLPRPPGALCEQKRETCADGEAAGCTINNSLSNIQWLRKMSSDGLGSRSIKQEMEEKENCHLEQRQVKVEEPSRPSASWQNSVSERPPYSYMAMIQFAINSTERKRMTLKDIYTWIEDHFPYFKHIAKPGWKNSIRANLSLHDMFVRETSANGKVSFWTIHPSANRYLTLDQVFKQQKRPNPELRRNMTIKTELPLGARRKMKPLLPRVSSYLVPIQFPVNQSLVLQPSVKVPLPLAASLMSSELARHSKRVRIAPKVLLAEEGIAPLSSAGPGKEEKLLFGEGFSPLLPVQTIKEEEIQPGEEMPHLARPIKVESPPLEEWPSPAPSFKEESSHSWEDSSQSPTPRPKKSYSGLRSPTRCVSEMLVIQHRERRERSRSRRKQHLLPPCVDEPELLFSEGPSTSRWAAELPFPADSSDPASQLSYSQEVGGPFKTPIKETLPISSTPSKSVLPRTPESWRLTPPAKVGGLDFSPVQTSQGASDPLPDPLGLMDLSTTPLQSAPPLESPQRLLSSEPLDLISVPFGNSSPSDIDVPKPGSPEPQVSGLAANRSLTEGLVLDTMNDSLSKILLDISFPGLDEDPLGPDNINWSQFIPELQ

GFP-FOXM1B R286A (human) = biological target: T2, GFP-FOXM1B R286A (human) (UniProt Q08050)
T2 sequence: T1 sequence with R286A, A287H

[1] = biological target: T3, GFP-FOXM1B wild type (human) (UniProt Q08050)
T3 sequence: T1 sequence with A287H

| Substance | binding (GFP-FOXM1B H287A (human)) | binding (GFP-FOXM1B R286A (human)) | binding [1] |
| --- | --- | --- | --- |
| B-MYB (from UniProt P10244 1-700) | binds | binds | binds |
| LIN9 (from UniProt Q5TKA1 1-542) | binds | binds | binds |
| general transcription factor TF2B (from UniProt Q00403 1-316) |  | binds | binds |
